These are yes or no findings as the source states them, for the method shown. Binding seen in cells or lysates may run through a third protein. Some binding calls cover weakened binding; strength is not graded here.
Target: toll-like receptor-4 (TLR4) (UniProt Q9QUK6)
Assay: co-IP; Ba/F3 cells stably expressing GFP-TLR4 and Flag-TLR4, incubated with media or mmLDL (50 µg/ml) for 15 min; lysates immunoprecipitated with an anti-GFP antibody, immunoblotted with anti-Flag and anti-GFP

By UniProt entry, the sequences of proteins in these tests, tags left out. Residues count along the entry.
UniProt Q9QUK6, residues 26-835: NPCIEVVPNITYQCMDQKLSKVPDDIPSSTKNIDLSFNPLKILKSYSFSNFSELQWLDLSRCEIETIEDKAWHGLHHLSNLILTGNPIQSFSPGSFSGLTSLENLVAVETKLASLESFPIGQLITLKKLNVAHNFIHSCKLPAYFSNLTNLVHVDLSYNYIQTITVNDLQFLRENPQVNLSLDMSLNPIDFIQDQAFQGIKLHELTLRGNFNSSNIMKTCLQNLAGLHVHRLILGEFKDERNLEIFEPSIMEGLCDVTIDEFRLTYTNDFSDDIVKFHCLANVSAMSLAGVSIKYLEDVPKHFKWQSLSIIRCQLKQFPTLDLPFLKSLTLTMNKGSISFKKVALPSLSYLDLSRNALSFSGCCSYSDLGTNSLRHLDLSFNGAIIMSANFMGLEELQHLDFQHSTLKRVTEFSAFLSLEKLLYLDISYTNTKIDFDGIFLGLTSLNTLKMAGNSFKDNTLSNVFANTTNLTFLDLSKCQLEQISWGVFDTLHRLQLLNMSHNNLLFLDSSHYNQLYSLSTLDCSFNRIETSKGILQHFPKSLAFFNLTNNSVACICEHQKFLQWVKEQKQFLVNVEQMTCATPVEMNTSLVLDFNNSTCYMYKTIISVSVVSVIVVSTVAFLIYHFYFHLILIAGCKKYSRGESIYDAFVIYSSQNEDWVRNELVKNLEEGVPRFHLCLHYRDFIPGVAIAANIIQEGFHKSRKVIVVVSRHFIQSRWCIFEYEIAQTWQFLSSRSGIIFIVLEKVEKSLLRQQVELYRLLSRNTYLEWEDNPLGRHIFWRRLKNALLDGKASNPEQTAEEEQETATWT

binding: binds
Substance: toll-like receptor-4 (TLR4) (from UniProt Q9QUK6 26-835)

From paper PMC3284564
